In PubChem BioAssay AID504834 (National Center for Advancing Translational Sciences (NCATS), 2011):
In all, about 320,000 compounds went through this assay and about 22,000 (6.9%) were called active. The inconclusive results got no clear call from the source; some entries with a clear call stand among them for comparison. The call rests on the fitted dose curve; in most records, active means well fitted inhibition curve with a large enough effect; inconclusive means small, poorly fitted or top-dose-only effect, or another doubt; inactive means no such curve, though single readings can be large or run the other way. A potency beside an inconclusive call is a rough fit, not a confirmed value.
On the % scale 0 is the no-effect control and ±100 the full control effect; potency means the concentration at half of the fitted maximal effect.

Test: Primary qHTS for delayed death inhibitors of the malarial parasite plastid, 96 hour incubation
Settings: P. falciparum luciferase reporter growth; series mostly up to 28.7 µM; activity change, negative = inhibition: at the top concentration
Method in brief: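 Cell-based qHTS: luciferase-tagged P. falciparum in erythrocytes (2% hematocrit, 0.05% parasitemia final) incubated with compounds for 96 hours, 37 C, 5% CO2; luciferase detection reagent then added and luminescence measured.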
In the case of O=C(CN(CC1CCCO1)C(=O)c1nsc(Cl)c1Cl)NC1CCCC1 (stereo not drawn), the Potency is reported as inconclusive: 0.0029 µM [inhibitor, full curve, poor fit].
In the case of Cc1cc(C)c(S(=O)(=O)NCc2cccnc2)cc1C, the Potency is reported as active: 11.7 µM.
With Cc1ccccc1CSc1nnc2ccc(-c3ccncc3)nn12 the Potency was inconclusive: 18.5 µM [inhibitor, single point].
In the case of CCCCOc1cccc(C(=O)O)c1, the Potency is reported as inconclusive: 18.5 µM [inhibitor, single point].
For O=C(Oc1cccc([N+](=O)[O-])c1)C1CCN(C(=O)c2ccc(F)cc2)CC1, the “activity change, negative = inhibition” value was inactive: -25.7%.
For CC1(c2ccccc2Cl)NC(=O)N(CC(=O)Nc2ccc3c(c2)OCO3)C1=O (stereo not drawn), the Potency was inconclusive: 2.33 µM [inhibitor, single point].
For CCOC(=O)CN(c1ccccn1)S(=O)(=O)c1ccccc1, the “activity change, negative = inhibition” value was inactive: 43%.
In the case of Cc1ccc(C(=O)O/N=C(\N)c2ccc(C(F)(F)F)cn2)cc1, the “activity change, negative = inhibition” value is reported as inactive: -9.84%.
With Cc1cccnc1NC(=O)C1c2ccccc2Oc2ccccc21 the Potency was inconclusive: 1.04 µM [inhibitor, full curve, poor fit].
For COC(=O)C1=C(C)N(Cc2ccccc2)C(=NCc2cc(OC)c(OC)c(OC)c2)N[C@H]1CCc1ccccc1, the Potency was inconclusive: 0.0657 µM [inhibitor, full curve, poor fit].
For COc1ccc(C(CC(=O)N2CCC3(CC2)OCCO3)NS(=O)(=O)c2ccc(C)cc2)cc1 (stereo not drawn), the Potency was inconclusive: 4.15 µM [inhibitor, partial curve, poor fit].
With CCC(C(=O)NC1CCCC1)N(C(=O)Cn1nnc(-c2cccs2)n1)c1cnc2ccccc2c1 (stereo not drawn) the “activity change, negative = inhibition” value was inactive: -1.98%.
For N#Cc1ccc(COC(=O)c2cnc(Cl)c(Cl)c2)cc1, the “activity change, negative = inhibition” value was inactive: -14.4%.
For Cc1ccc(N2CC(C(=O)OCC(=O)c3ccc([N+](=O)[O-])cc3)CC2=O)cc1 (stereo not drawn), the Potency was inconclusive: 10.4 µM [inhibitor, partial curve].
For O=C1OCc2ccc(NC(=O)C3CCCCC3)cc21, the “activity change, negative = inhibition” value was inactive: 20.2%.
For Cc1ccc(S(=O)(=O)c2c(C)cc(C)nc2Oc2cccc(C(F)(F)F)c2)cc1, the Potency was inconclusive: 13.1 µM [inhibitor, single point].
For COc1ccc(C(C[N+](=O)[O-])c2c(C)cc3ccccn23)cc1 (stereo not drawn), the Potency was active: 11.7 µM.
With Cn1c(-c2ccc(F)cc2)cnc1NCc1cccc([N+](=O)[O-])c1 the Potency was inconclusive: 18.5 µM [inhibitor, single point].
In the case of CSC1=NCCN1S(=O)(=O)c1ccc(C)cc1, the “activity change, negative = inhibition” value is reported as inactive: -3.22%.
In the case of CCOc1ccc(N2C(=O)NC(=O)/C(=C/c3cnc(SC)nc3)C2=O)cc1, the Potency is reported as inconclusive: 3.29 µM [inhibitor, single point].
In the case of Cc1cc(S(=O)(=O)N2CCOCC2)ccc1NC(=O)c1ccc(F)cc1, the “activity change, negative = inhibition” value is reported as inactive: -0.623%.
In the case of COc1ccc(C(=O)NCCCSc2ccccc2)cc1F, the Potency is reported as inconclusive: 11.7 µM [inhibitor, partial curve, poor fit].
For O=C(CCc1ccccc1)OCCOC(=O)CCc1ccccc1, the “activity change, negative = inhibition” value was inactive: 17.8%.
With CCOc1ccc(N(CC(=O)NCc2cccc(OC)c2)S(=O)(=O)c2c(C)noc2C)cc1 the Potency was inconclusive: 0.0037 µM [inhibitor, full curve, poor fit].
With COc1ccc(Oc2coc3cc(OC(=O)N4CCOCC4)ccc3c2=O)cc1 the “activity change, negative = inhibition” value was inactive: 0%.
In the case of CC1=CCC2C(=O)N(Cc3ccccc3)C(=O)C2C1 (stereo not drawn), the Potency is reported as inconclusive: 18.5 µM [inhibitor, single point].
For CCn1c(SCC(=O)c2c(N)n(C3CC3)c(=O)[nH]c2=O)nnc1-c1ccccc1OC, the Potency was active: 8.28 µM.
In the case of O=C(C(=O)N1CCc2ccccc2C1)c1cn(CC(=O)N2CCCC2)c2ccccc12, the “activity change, negative = inhibition” value is reported as inactive: 12.7%.
In the case of CCOc1ccc2[nH]cc(-c3csc(N)n3)c2c1, the Potency is reported as inconclusive: 13.1 µM [inhibitor, single point].
With O=C(CCCNS(=O)(=O)c1cccs1)N1CCN(c2ccc(F)cc2)CC1 the “activity change, negative = inhibition” value was inactive: -2.88%.
For Cc1ccc(C(=O)COC(=O)CCN2C(=O)C3C4C=CC(C5CC45)C3C2=O)cc1 (stereo not drawn), the “activity change, negative = inhibition” value was inactive: 15.3%.
In the case of O=C(OCCCN=C1NS(=O)(=O)c2ccccc21)c1ccccc1, the “activity change, negative = inhibition” value is reported as inactive: 1.61%.
In the case of COCC(=O)N1CCC(Oc2ccc(C(=O)N3CCCCCCC3)cc2)CC1, the Potency is reported as inconclusive: 18.5 µM [inhibitor, single point].
In the case of CCO[C@@H]1OC(C(=O)Nc2ccccc2)=C[C@H](c2ccc(C(F)(F)F)cc2)[C@H]1CCCO, the Potency is reported as inconclusive: 10.4 µM [inhibitor, single point].
With C/C(=N/NC(=O)c1ccncc1)c1cc2ccc(O)cc2oc1=O the Potency was inconclusive: 18.5 µM [inhibitor, single point].
For CCN1C(=O)[C@H]2[C@@H](c3ccc(C)cc3)N3C(=O)N(c4cccc(Cl)c4)C(=O)[C@@]3(Cc3ccccc3)[C@H]2C1=O, the Potency was inconclusive: 18.5 µM [inhibitor, single point].
In the case of COc1ccc(CNc2nc3c(c(=O)[nH]c(=O)n3C)n2Cc2ccccc2)cc1, the “activity change, negative = inhibition” value is reported as inactive: 12.3%.
In the case of Cc1cc(=O)n2nc(N3CCCC(C(=O)NC4CCCCC4C)C3)sc2n1 (stereo not drawn), the “activity change, negative = inhibition” value is reported as inactive: -9.8%.
In the case of Cc1cc(OCC(=O)Nc2cc(C)nn2-c2ccccn2)c2c3c(c(=O)oc2c1)CCC3, the “activity change, negative = inhibition” value is reported as inactive: 147%.
With COc1ccc(N=C2S/C(=C\c3ccc(C)o3)C(=O)N2CC(C)C)cc1 the Potency was active: 3.29 µM.
In the case of COc1ccc(C(=O)CC(SCC(NC(C)=O)C(=O)O)c2ccc(Cl)cc2)cc1OC (stereo not drawn), the Potency is reported as inconclusive: 7.38 µM [inhibitor, partial curve].
With NC(=S)N=Nc1c(O)[nH]c2ccccc12 the Potency was inconclusive: 0.928 µM [inhibitor, partial curve, poor fit].
In the case of Cn1c(NCCCO)nc2c1c(=O)n(Cc1ccccc1F)c(=O)n2C, the “activity change, negative = inhibition” value is reported as inactive: -13.6%.
With O=c1c2cnn(-c3ccccc3Cl)c2ncn1Cc1cccnc1 the Potency was active: 13.1 µM.
With Nc1ncc(Br)cc1S(=O)(=O)NCCC(=O)N1CCN(c2ncccn2)CC1 the Potency was inconclusive: 3.7 µM [inhibitor, full curve].
For Cc1cnc(NC(=O)CSC(=S)N2CCOCC2)s1, the “activity change, negative = inhibition” value was inactive: 66.6%.
For CCCN(CC1CCCO1)C(=O)c1cc(COc2ccc(F)cc2F)on1 (stereo not drawn), the Potency was active: 11.7 µM.
For COc1ccccc1NC(=O)COc1ccccc1C(=O)c1cnn(-c2ccccc2)c1, the Potency was inconclusive: 16.5 µM [inhibitor, single point].
